Assay results reported in PubChem BioAssay (EPA / NIEHS).
“And” between values parts separate entries of the source, which are not always exact repeats. Equal entries are not always repeated. Inconclusive results, whose numbers are uncertain, are shown with a selection of clear calls. Potencies of inconclusive entries are doubtful fits and often do not repeat. The source made the active and inactive calls. Rule for the calls: active = hit-call score of the fitted dose curve at least 0.9, where 1 is the maximum; inconclusive = response in the unintended direction; inactive = score below 0.9.

Test: TOX21_p53_BLA_p5_viability: Viability Assessment in the Tox21 HCT-116 p53 Agonism Beta-lactamase Assay, Phase 5 (AID 2283600)
Text: TOX21_p53_BLA_p5 is a cell-based, single-readout assay that uses HCT116, a human intestinal cell line, […] in a 1536-well plate.TOX21_p53_BLA_p5_viability is an assay readout measuring cellular ATP content and detected with CellTiter-Glo Luciferase-coupled ATP quantitation.TOX21_p53_BLA_p5_viability used a type of viability reporter where loss-of-signal activity can be used to understand changes in the cell viability. Furthermore, this assay endpoint can be referred to as a secondary readout, because this assay has produced multiple assay endpoints where this one serves a viability function. To generalize the intended target to other relatable targets, this assay endpoint is annotated to the cell cycle intended target family, where the subfamily is cytotoxicity.
Thawing Method: Place 14 mL of pre-warmed thaw medium into a 15 mL of conical tub. Remove the vial of cells to be thawed from liquid nitrogen and thaw rapidly by placing at 37C in a water bath with gentle agitation for 1-2 minutes. Decontaminate the vial by wiping with 70% ethanol before opening in a biological safety cabinet. Transfer the vial contents drop-wise into 14 mL of thaw medium in a sterile 15-mL conical tub. Centrifuge cells at 900 rpm for 4 minutes and resuspend in thaw medium. Transfer contents to the T75 tissue culture flask containing Thaw Medium and place flask in a humidified 37C/5% CO2 incubator. Switch to growth medium at first passage.Propagation Method: Aspirate medium, rinse once in DPBS, add 0.25% Trypsin/EDTA and swirl to coat the cell evenly. Add an equal volume of Growth Medium to inactivate Trypsin after 2-3 minutes incubation at 37C. Centrifuge cells at 900 rpm for 4 minutes and resuspend in growth medium. Cell should be passage or fed at least twice a week.Assay Protocol: Harvest cells from culture in growth medium and resuspend in assay medium. 2.2 Dispense 4000 cells/5 uL/well into 1536-well black/clear bottom plates using a Multidrop dispenser. After the cells were incubated at 37C for 5 hours, 23 nL of compounds dissolved in DMSO were transferred to the assay plate by a PinTool resulting in a 217-fold dilution. Incubate the plates for 16 hours at 37C, 5% CO2. Add 1 uL of 6X LiveBLAzer FRET B/G (CCF4-AM) Substrate Mixture to each well using a BioRAPTR dispenser and incubate the plates at room temperature for 2 hours. Measure fluorescence intensity at 460 and 530 nm emission and 405 nm excitation by an Envision detector. Data is expressed as the ratio of 460nm/530nm emissions. Add 4 uL of Cell-titer Glo to each well using BioRAPTR and incubate the plates at room temperature for […]. For cell viability readout that measures cytotoxicity, 4 ul/well of CellTiter-Glo reagent was added into the assay plates using a Flying Reagent Dispenser. After 30 min incubation at room temperature, the luminescence intensity in the plates was measured using a ViewLux plate reader.

Row | SMILES | AC50 | outcome
1 | Nc1cc(Cl)c(O)c(Cl)c1 | inconclusive: 80.2 µM | 
2 | COC(=O)C1=C(C)NC(C)=C(C(=O)OCC(C)C)C1c1ccccc1[N+](=O)[O-] (stereo not given) | inconclusive: 0.0034 µM | 
3 | [Cl][Bi]([Cl])([c]1ccccc1)([c]1ccccc1)[c]1ccccc1 | active: 58.1 µM | 
4 | CCCC(CC)c1ccccc1 (stereo not given) | inconclusive: 46.1 µM | 
5 | OC1CCCCC1 | inconclusive: 46.1 µM | inactive
6 | OCC1CCCO1 (stereo not given) | inconclusive: 0.314 µM | inactive
7 | CC1C(C)(C)C2=C(C(=O)CCC2)C1(C)C (stereo not given) |  | inactive
8 | CCOC(=O)NNc1nncc2ccccc12 | inconclusive: 23 µM | 
9 | CCCCCCCCCCCC(=O)OC | inconclusive: 46.1 µM | inactive
10 | Cc1cc(C2(c3cc(C)c(O)cc3C)OS(=O)(=O)c3ccccc32)c(C)cc1O | inconclusive: 10.5 µM | 
11 | CCCC1O[C@@H]2C[C@H]3[C@@H]4CCC5=CC(=O)C=C[C@]5(C)[C@H]4[C@@H](O)C[C@]3(C)[C@]2(C(=O)CO)O1 (stereo not given in full) | inconclusive: 46.1 µM and inconclusive: 23 µM | 
12 | CC(CCl)OP(=O)(OC(C)CCl)OC(C)CCl (stereo not given) | inconclusive: 86.2 µM | 
13 | NC(=O)NC(N)=O | inconclusive: 46.1 µM | 
14 | CCNc1ccccc1 | inconclusive: 81.9 µM and inconclusive: 46.8 µM | 
15 | CCn1nc(C)c2c1C(=O)NCC(c1ccc(O)cc1)=N2 | inconclusive: 46.1 µM | 
16 | O=C(O)CC(C(=O)O)C(CC(=O)O)C(=O)O (stereo not given) | inconclusive: 46.1 µM | 
17 | Cc1ccc(S(=O)(=O)O)c(C)c1 | inconclusive: 46.1 µM | inactive

Row | SMILES | AC50 | outcome
18 | NCCNCCN | inconclusive: 46.1 µM | inactive
19 | ClCCCl |  | inactive
20 | Cc1cc2nc3c(=O)[nH]c(=O)nc-3n(C[C@H](O)[C@H](O)[C@H](O)CO)c2cc1C | inconclusive: 45.7 µM and inconclusive: 23 µM and inconclusive: 1.09 µM | 
21 | COc1cccc(OC)c1C(=O)O |  | inactive
22 | CN(C)C | inconclusive: 46.6 µM | 
23 | CCCCCCCCCCCCCCCC(=O)O | inconclusive: 0.000332 µM | 
24 | C=C(C)C(=O)OCC(CC)(COC(=O)C(=C)C)COC(=O)C(=C)C | inconclusive: 45.4 µM and inconclusive: 46.7 µM | 
25 | O=C(C=Cc1ccccc1)OCCc1ccccc1 |  | inactive
26 | COC(=O)OC | inconclusive: 46 µM | 
27 | CC(C)(C)c1cc(O)c(C(C)(C)C)cc1O |  | inactive
28 | CCCN(CCC)C(=O)SCC | inconclusive: 80.1 µM | inactive
29 | CCCCCC/C=C/CCCCCCCC(=O)O | inconclusive: 46.1 µM | 
30 | O=C(O)c1ccc([N+](=O)[O-])cc1 | inconclusive: 46 µM | 
31 | CC1(C)CC(N=C=O)CC(C)(CN=C=O)C1 (stereo not given) | inconclusive: 46.6 µM | 
32 | CCCCCCCCCCCC(=O)OC[C@@H](O)[C@H]1OC[C@H](O)[C@H]1O |  | inactive
33 | O=C1NC(=O)C2CC=CCC12 (stereo not given) |  | inactive
34 | CCC(=O)OC(C)c1ccccc1 (stereo not given) |  | inactive
